Test results taken from paper doi:10.1101/418368.
No constants are given. Whether binding was seen depends on the method and setting. In cells and extracts the contact can be indirect. These calls come from enrichment with a bait or labelling near it, and not all partners need be listed.

By UniProt entry, the sequences of proteins in these tests, tags left out.
UniProt P49739: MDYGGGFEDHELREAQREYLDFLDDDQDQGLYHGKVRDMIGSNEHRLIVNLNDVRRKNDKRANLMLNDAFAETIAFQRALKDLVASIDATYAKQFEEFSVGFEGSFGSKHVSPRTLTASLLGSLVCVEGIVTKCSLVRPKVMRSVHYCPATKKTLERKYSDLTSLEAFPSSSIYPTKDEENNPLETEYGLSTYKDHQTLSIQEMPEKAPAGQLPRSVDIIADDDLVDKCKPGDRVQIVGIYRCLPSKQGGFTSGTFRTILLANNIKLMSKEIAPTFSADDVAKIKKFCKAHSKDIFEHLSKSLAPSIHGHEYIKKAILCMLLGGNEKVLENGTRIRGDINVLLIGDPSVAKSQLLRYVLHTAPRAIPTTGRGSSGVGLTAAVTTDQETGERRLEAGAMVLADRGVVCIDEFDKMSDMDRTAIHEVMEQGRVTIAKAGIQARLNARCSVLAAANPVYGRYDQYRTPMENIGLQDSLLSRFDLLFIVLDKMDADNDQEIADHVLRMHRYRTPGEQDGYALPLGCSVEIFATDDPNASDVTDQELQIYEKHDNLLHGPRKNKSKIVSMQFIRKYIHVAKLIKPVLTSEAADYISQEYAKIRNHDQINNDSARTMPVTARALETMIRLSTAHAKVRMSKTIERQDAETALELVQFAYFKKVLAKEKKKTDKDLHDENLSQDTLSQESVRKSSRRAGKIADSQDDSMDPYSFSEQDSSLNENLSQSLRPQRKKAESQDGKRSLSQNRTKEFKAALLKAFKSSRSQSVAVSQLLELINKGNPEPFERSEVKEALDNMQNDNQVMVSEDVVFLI

Target: Mcm3 (Xenopus laevis (endogenous in egg extract)) (UniProt P49739)
Experiment: affinity purification with mass spectrometry

B1: Ctf4/And-1 (protein, UniProt O13046 1-1127)
chain: MPAIKKNMRYGHPEGHTDVCFDDSGNFLVTCGSDGDIRIWESLDDDDPKSISIGEKAYSFALKNGKVVTAASNNAIQLHTFPDGEPDGILTRFTTNANHVVFNTDGTRIAAGSGDFLVKVLQVEDSTQQKTLRGHSAPVLSVSFDPKDIYLASASCDGSVRIWKISDQTCEAVLPLLEKCNDVFNAKSICRLAWQPKSGKFVAIPVGKAVHLYDRDSLKNICTLSDDFITQPVNIVAWSPCGQYLVAGSVDGCIVAWNIATKACLERIKHEKGYTICALAWHPHLPQIAYTDNEGNLGLLEDVCQGDVKQPSAKVSSAETKDYDELFDGDDDEDFLNGDMIGHEGAVNDEDDDDNFTALTGRPRNRGAIFDDDISSDVPSLKLVGNENPVVEDDQASSVQNFTSVASVKLSYNGPMPTPQQKPFQSGSTPVHLMHRFMVWNSVGVIRCYNDEQDNAIDVEFHDTSIHHAIHLTNSLNHTLADVSQEAVLLACETTEELASKLQCLHFSSWDTSKEWMVDMPKGENIQAICLGQGWVACATSALLIRIFSVGGVQKELISLFGPVVCMASHGEQLIVVYHRGMGFDGDQCLGVQLLELGKKKKQVLHGDPLPLSRKSYLSWLGFTAEGSPCYVDSEGIVRLLNRSLGDTWVPICNTREHCKGKSDHYWVVGIHENPQQVRCIPCKGSRFPPTLPRPAVAVLPFNLPYCQITTEKGQMEEQYWRSQIFSNHSDYLSKHGYECDENFKAEAQKMQQELLMKMFALSCKLEREFRCMELAEFMTQNVMNLAIKYASRSKRLILAQRLSEMALEKAAEQASAEQNEEEDEEEEDFRSRLTAGYSRTATEWGDSRAKPVKQDQYEENNEEEMEEEEKEQEEALESNTPTANPFNKSVKTPDVSESKLGAILSSNQGRVNPFKVSASQKSPAFASNSSRSTSILDNMGKFPRKPSASGSPSTSKSDSVIIKPLAPKAKSKQGQATLFHSVQAKPIAKKTTEEKKAVPTPPKAAADIAENKKPKTGFQLWLDENRPSILSENAGLDESEIIKEGMSRFRMLTSEERMLWTEKAKGDYPGEDGADAKKRKRPEQENMASNGCPQENTDSGIAAAKKHKPLGQSANNKLSAFAFKKE
- binding: binds
